Paper PMC12283378
These are yes or no findings as the source states them, for the method shown. Some binding calls cover weakened binding; strength is not graded here. Where a sequence is shown, tags or fusion partners need not be part of it.

Molecular target: T1, LHA1 expressed in yeast, phosphorylated at the penultimate threonine (tomato (Solanum lycopersicum)) (UniProt P22180)
T1 sequence (chain, phospho-threonine at the penultimate residue of the regulatory C-terminus (T955)): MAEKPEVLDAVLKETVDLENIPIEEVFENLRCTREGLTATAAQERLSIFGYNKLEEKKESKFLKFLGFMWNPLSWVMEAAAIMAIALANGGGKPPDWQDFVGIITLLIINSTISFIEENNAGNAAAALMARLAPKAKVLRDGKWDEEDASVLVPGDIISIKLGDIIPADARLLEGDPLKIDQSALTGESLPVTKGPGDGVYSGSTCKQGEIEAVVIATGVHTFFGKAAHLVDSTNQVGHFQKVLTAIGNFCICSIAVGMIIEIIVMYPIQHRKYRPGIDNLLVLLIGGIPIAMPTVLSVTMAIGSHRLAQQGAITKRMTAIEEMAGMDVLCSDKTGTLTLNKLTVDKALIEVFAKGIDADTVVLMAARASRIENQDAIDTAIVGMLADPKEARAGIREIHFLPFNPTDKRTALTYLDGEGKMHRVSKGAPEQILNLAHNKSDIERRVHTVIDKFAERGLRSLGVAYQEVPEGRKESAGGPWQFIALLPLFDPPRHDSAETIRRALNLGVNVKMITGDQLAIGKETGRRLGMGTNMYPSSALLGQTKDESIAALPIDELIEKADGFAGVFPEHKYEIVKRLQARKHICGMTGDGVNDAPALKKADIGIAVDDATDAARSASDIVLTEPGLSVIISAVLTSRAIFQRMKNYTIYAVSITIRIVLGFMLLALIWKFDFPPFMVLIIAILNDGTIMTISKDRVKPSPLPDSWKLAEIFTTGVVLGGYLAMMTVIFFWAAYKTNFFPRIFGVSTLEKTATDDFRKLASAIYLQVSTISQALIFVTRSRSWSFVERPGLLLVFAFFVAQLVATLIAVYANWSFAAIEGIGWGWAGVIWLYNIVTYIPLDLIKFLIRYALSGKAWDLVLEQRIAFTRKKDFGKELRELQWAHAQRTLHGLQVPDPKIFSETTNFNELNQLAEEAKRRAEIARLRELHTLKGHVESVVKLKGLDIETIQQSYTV
Test: far-Western, overlay or dot blot; yeast microsomal fractions (100 µg) separated by SDS-PAGE and blotted to nitrocellulose; overlay with 40 µg RGS-His 14-3-3 (GF14ø) and 5 µM fusicoccin in 10 ml far-western buffer (20 mM MES, 130 mM NaCl, 10 mM MgSO4, 100 µM CaCl2, pH 6.5), 1 h, room temperature; detected with anti-RGS-6x-His; only the binder purified

B1: RGS-His epitope tagged 14-3-3 (GF14ø) protein (protein, UniProt P46077 1-267)
chain: MAAPPASSSAREEFVYLAKLAEQAERYEEMVEFMEKVAEAVDKDELTVEERNLLSVAYKNVIGARRASWRIISSIEQKEESRGNDDHVTTIRDYRSKIESELSKICDGILKLLDTRLVPASANGDSKVFYLKMKGDYHRYLAEFKTGQERKDAAEHTLTAYKAAQDIANAELAPTHPIRLGLALNFSVFYYEILNSPDRACNLAKQAFDEAIAELDTLGEESYKDSTLIMQLLRDNLTLWTSDMQDESPEEIKEAAAPKPAEEQKEI
- binding: binds
